For three substances, binding results are on record in publication PMC8814693 (Computational and Structural Biotechnology Journal, 2022).

The chains behind the UniProt entries cited, without tags or fusion partners. Residues count along the entry.
UniProt Q5TBC7: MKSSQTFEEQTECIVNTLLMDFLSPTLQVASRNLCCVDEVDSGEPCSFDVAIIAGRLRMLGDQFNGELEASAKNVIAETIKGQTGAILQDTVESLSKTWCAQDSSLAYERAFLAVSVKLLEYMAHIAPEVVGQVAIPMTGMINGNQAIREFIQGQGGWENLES
UniProt Q07817, residues 1-209: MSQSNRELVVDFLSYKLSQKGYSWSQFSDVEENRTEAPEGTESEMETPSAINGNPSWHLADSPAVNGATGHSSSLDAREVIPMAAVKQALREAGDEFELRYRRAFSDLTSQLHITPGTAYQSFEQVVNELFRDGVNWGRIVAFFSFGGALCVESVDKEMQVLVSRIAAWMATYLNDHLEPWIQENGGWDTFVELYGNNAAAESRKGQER
UniProt P10415, residues 1-207: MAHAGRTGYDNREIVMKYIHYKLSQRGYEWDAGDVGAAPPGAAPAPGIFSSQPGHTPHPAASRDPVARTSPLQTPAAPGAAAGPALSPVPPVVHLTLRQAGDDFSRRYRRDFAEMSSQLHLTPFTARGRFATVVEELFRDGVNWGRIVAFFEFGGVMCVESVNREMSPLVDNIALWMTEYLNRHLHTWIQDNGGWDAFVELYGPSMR

Results are given in words; binding and its absence hold for the method and conditions named. Some results given as binding are weak or reduced against the parent protein; the word gives no strength.

Experiment [1] addresses human full-length Bfk (Bcl-2 family kin) (human) (UniProt Q5TBC7). As to the kind of experiment: SPR; full-length Bfk amine-coupled to a CM5 chip (10 mM sodium acetate pH 3.6); Bcl-2, Bcl-XL (3.13-200 nM) and Bak (1.25-40.0 uM) injected in HBS-EP at 30 uL/min for 90 s; Biacore T200; both purified. Background: Surface plasmon resonance follows binding to a sensor surface in real time, without labels.

In experiment [2] the target is T1, synthetic BH3 peptide derived from Bid (residues 79-100).
T1 sequence (peptide): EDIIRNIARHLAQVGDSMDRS
As to the kind of experiment: SPR; Bid BH3 peptide amine-coupled to a CM5 chip (10 mM sodium acetate pH 4.0); proteins injected in HBS-EP (10 mM HEPES pH 7.5, 150 mM NaCl, 0.05 mM EDTA, 0.005% Tween 20) at 30 uL/min for 90 s; Biacore T200; affinity experiments, responses plotted against concentration; both purified.

Experiment [3] concerns the target human full-length Bfk (Bcl-2 family kin) (human) (UniProt Q5TBC7). As to the kind of experiment: SEC; gel filtration step of the purification, HiLoad 16/600 Superdex 75 pg, 200 mM NaCl, 25 mM MES-NaOH pH 6.0; both purified. A general note: Size exclusion chromatography separates by hydrodynamic size, large species first.

On to “Bcl-XL (residues 1-209) (from UniProt Q07817-1 1-209) (domain or fragment)”, for which the binding entry in experiment [1] is on record as “no binding (tested: 200 nM)”.

Consider “human full-length Bfk (Bcl-2 family kin) (from UniProt Q5TBC7 1-163)”, for which the binding entry in experiment [2] is “no binding (tested: 40 μM)”; in experiment [3], “binds weakly”.

As to “Bcl-2 (residues 1-207) (from UniProt P10415 1-207) (domain or fragment)”, the binding result in experiment [1] is reported as “no binding (tested: 200 nM)”.
